Data from paper PMC5886150.
No constants are given. Whether binding was seen depends on the method and setting. For part of these data: Binding seen in cells or lysates may run through a third protein. Some results given as binding are weak or reduced against the parent protein; the word gives no strength. Each block holds one molecule with its values, some of them ahead of it.

Protein sequences, listed by entry. Tags and fused reporters are not part of them.
UniProt P09651: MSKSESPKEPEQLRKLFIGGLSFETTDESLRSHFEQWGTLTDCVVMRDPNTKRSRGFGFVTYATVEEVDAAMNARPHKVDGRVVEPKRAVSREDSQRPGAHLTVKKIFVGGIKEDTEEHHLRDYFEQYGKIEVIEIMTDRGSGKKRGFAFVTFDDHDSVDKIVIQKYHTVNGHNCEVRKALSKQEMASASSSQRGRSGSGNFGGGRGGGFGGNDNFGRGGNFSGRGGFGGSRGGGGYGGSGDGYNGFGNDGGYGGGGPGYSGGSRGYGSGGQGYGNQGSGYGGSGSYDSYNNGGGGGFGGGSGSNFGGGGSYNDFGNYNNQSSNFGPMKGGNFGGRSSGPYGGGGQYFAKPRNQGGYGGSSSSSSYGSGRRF
UniProt P11142: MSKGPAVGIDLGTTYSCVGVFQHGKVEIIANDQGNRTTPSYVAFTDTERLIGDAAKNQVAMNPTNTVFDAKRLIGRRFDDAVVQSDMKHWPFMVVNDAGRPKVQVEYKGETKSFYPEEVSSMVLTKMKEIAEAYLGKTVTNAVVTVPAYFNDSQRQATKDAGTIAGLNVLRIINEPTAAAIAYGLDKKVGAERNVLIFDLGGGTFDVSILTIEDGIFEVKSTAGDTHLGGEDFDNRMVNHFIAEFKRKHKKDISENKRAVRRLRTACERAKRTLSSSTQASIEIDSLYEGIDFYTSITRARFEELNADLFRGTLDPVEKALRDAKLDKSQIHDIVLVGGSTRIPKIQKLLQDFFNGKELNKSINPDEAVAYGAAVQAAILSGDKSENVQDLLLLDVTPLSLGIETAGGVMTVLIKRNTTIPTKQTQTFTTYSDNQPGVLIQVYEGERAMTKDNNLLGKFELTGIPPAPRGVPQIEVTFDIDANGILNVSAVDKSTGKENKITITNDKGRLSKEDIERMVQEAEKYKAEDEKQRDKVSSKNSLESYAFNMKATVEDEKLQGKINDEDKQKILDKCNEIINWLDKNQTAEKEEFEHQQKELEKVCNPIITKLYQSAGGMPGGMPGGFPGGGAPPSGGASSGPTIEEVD
UniProt P11940: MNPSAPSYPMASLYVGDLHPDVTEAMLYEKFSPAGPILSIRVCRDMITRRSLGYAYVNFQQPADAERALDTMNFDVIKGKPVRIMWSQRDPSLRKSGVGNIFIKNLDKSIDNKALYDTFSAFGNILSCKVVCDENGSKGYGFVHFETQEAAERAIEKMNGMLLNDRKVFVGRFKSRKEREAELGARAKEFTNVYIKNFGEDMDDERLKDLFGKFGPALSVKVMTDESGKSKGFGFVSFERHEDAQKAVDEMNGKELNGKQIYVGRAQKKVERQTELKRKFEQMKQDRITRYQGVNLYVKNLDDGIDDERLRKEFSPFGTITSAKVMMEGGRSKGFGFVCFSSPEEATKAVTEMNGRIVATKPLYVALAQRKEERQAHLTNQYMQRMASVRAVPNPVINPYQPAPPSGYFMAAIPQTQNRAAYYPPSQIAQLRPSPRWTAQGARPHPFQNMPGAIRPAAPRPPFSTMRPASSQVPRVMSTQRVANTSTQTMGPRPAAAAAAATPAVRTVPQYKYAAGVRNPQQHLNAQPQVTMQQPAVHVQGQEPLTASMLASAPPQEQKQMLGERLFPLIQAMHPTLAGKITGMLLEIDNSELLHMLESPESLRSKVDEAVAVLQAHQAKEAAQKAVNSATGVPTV
UniProt P04406: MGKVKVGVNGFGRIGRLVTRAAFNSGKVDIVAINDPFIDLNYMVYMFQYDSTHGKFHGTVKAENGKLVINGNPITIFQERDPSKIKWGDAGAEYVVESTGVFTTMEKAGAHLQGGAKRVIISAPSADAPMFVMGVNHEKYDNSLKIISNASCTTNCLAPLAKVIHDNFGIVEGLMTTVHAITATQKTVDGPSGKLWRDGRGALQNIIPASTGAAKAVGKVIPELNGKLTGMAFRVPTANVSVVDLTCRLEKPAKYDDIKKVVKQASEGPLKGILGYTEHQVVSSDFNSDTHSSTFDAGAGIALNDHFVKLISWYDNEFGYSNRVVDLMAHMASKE

What was measured:
[1] = target: heterogeneous ribonucleoprotein A1 (human (endogenous in SH-SY5Y)) (UniProt P09651); experiment: co-IP; immunoprecipitation of hnRNPA1 from SH-SY5Y cells, DJ-1 found in the precipitate
[2] = target: wild type DJ-1 expressed in KD1 (DJ-1 knock down SH-SY5Y) cells (UniProt Q99497); experiment: native gel or EMSA; two-dimensional BN/SDS PAGE of soluble complexes, second dimension 12.5% polyacrylamide-SDS-urea gel; western blot; co-migration
[3] = target: wild type DJ-1 expressed in KD1 (DJ-1 knock down SH-SY5Y) cells (UniProt Q99497); experiment: native gel or EMSA; blue native PAGE of soluble complexes extracted by sonication in sucrose buffer (250 mM Sucrose, 10 mM HEPES, 1.5 mM MgCl2, 10 mM KCl, pH 7.0) from brain or cells; 7.5% or 8-16% gradient gels; western blot
[4] = target: T1, DJ-1 (endogenous, human post mortem brain) (human (endogenous in post mortem brain)), Q99497; experiment: SDS PAGE and western blot (SDS-resistant dimer); human post mortem cortex homogenised in 10 mM Tris, pH7.4, 150 mM NaCl, 0.1% SDS; membranes probed for total DJ-1; details: remark: other sources report otherwise
T1 chain: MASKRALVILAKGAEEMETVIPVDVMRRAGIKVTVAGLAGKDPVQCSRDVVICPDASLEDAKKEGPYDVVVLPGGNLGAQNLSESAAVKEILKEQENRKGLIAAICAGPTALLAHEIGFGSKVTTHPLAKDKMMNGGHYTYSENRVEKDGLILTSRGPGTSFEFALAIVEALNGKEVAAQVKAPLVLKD

binding [1]: binds
Molecule: DJ-1 (endogenous, SH-SY5Y cells) (from UniProt Q99497 1-189)

binding [2]: binds
Molecule: hsc70 (from UniProt P11142 1-646)

binding [2]: binds | binding [3]: binds
Molecule: polyadenylate-binding protein 1 (from UniProt P11940 1-636)

binding [2]: binds
Molecule: Glyceraldehyde 3-phosphate dehydrogenase (from UniProt P04406 1-335)

binding [4]: binds
B1: DJ-1 (endogenous, human post mortem brain), Q99497 1-189 (protein)
chain: T1 chain
